The list shows a part of the results, in another mix than the full data. The calls were merged from several studies; some rest on single wells. Some of the results follow.
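Further: active if original authors judged signal statistically different from baseline.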

Chains of the proteins cited; added tags and fusions are not shown. Lines headed by an entry give the natural chain unless they say otherwise; changes in a name come on top. A line that says so, or that is headed by a name, gives the form on record, which may keep a tag or linker.
UniProt Q8NGI4: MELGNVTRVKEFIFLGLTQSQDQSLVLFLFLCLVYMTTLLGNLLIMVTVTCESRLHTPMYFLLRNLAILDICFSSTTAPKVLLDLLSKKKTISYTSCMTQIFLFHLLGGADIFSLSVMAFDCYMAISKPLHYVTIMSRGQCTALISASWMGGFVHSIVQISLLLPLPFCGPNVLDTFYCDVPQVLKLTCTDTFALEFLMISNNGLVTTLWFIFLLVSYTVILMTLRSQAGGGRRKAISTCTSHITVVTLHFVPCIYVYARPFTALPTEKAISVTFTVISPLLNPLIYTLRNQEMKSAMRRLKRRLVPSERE
UniProt Q8NGN0: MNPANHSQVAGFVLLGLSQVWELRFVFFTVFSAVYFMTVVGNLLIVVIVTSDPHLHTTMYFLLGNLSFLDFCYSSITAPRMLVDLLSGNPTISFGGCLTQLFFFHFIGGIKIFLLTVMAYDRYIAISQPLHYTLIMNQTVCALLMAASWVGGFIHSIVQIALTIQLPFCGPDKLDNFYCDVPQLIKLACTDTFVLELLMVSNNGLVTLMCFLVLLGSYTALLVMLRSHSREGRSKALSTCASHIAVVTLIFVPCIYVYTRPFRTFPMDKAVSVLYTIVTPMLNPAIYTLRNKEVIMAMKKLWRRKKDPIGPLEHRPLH
UniProt Q8NGE8: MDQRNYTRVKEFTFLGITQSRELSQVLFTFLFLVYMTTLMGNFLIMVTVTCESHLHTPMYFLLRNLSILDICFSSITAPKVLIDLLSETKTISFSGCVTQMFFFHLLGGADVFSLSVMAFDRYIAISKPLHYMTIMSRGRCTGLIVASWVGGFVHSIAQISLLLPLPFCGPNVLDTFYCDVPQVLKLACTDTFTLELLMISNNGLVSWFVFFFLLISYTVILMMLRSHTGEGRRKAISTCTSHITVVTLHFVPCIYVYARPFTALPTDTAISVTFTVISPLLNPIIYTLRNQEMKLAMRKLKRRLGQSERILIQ
OR4D6, as listed by the source: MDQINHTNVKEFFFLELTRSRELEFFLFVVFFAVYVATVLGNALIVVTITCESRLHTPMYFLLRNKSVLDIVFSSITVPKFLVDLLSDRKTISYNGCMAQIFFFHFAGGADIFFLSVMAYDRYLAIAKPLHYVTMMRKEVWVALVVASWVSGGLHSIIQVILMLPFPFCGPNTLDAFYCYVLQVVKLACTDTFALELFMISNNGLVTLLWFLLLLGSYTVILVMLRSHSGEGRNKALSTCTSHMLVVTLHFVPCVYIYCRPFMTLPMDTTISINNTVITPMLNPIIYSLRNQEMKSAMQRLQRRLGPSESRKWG
OR4D2, as listed by the source: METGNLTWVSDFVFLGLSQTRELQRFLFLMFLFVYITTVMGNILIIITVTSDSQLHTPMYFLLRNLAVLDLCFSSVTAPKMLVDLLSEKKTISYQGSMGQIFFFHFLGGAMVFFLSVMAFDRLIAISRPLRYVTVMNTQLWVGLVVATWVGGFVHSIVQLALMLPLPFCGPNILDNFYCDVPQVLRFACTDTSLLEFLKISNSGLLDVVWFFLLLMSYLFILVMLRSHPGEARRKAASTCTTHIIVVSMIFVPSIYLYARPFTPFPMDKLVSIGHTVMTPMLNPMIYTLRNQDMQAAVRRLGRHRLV
OR4D1, as listed by the source: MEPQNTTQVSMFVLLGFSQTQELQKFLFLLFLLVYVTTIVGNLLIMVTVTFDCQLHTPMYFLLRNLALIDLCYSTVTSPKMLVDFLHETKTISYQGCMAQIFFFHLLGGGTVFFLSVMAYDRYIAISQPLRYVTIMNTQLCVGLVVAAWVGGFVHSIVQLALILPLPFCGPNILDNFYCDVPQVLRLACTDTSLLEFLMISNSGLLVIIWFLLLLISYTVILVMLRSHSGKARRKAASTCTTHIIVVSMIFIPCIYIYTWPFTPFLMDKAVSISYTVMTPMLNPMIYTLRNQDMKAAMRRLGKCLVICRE

In the first experiment the target is OR4D11 (Homo sapiens) (UniProt Q8NGI4). As to conditions: stereoisomer not certain. Put shortly:
(§1)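 Each receptor–molecule pair is labelled responsive or non-responsive (inactive) according to whether the original authors judged the measured signal statistically different from baseline. The data were taken from the main text and supplementary material of published papers and checked for typos and inconsistencies. Assay methods differed by source, with transient luciferase assays in mammalian cell lines being common.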
Regarding `CCC(C)=O`, the “odorant receptor agonist call” value is “inactive”.

As to `CS`, the “odorant receptor agonist call” value was “inactive”.

As for `CCCCOC(C)=O`, the “odorant receptor agonist call” value is “inactive”.

The subject of a further experiment is OR4D1. To be noted: stereoisomer not certain. In outline:
as §1
For the compound `CCC(C)=O`, the “odorant receptor agonist call” value is “inactive”.

Regarding `CS`, the “odorant receptor agonist call” value is “inactive”.

Turning to `CCCCOC(C)=O`, the “odorant receptor agonist call” value is “inactive”.

The test system of the next experiment is OR4D2. As to conditions: stereoisomer not certain. Put shortly:
as §1
On to `CCC(C)=O`, for which the “odorant receptor agonist call” value was “inactive”.

For `CS`, the “odorant receptor agonist call” value is “inactive”.

As for `CCCCOC(C)=O`, the “odorant receptor agonist call” value is “inactive”.

The target in a further experiment is OR4D5 (Homo sapiens) (UniProt Q8NGN0). To be noted: stereoisomer not certain. In outline:
as §1
`CCC(C)=O`: the “odorant receptor agonist call” value is “inactive”.

For `CS`, the “odorant receptor agonist call” value was “inactive”.

Turning to `CCCCOC(C)=O`, the “odorant receptor agonist call” value was “inactive”.

The next experiment concerns OR4D6. As to conditions: stereoisomer not certain. Put shortly: as §1
As to `CCC(C)=O`, the “odorant receptor agonist call” value is “inactive”.

For `CS`, the “odorant receptor agonist call” value was “inactive”.

`CCCCOC(C)=O`: the “odorant receptor agonist call” value was “inactive”.

For the next experiment, the target named is OR4D9 (Homo sapiens) (UniProt Q8NGE8). To be noted: stereoisomer not certain. In outline:
as §1
As to `CCC(C)=O`, the “odorant receptor agonist call” value was “inactive”.

Turning to `CS`, the “odorant receptor agonist call” value is “inactive”.

`CCCCOC(C)=O`: the “odorant receptor agonist call” value is “inactive”.

For another experiment, the system named is T1, OR4E2.
T1 sequence (whole entry): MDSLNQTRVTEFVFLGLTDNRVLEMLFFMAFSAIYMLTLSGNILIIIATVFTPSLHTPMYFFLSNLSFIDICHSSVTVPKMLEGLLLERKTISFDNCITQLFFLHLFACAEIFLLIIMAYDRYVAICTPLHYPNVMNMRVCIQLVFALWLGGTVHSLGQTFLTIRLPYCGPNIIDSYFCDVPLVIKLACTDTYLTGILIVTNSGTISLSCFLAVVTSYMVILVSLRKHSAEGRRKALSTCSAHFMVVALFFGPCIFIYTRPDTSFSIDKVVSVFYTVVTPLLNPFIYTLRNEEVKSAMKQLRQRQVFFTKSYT
To be noted: stereoisomer not certain. In outline: as §1
`CCC(C)=O`: the “odorant receptor agonist call” value was “inactive”.

As for `CS`, the “odorant receptor agonist call” value was “inactive”.

For `CCCCOC(C)=O`, the “odorant receptor agonist call” value is “inactive”.

A further experiment addresses T2, OR4F15 (Homo sapiens) (UniProt Q8NGB8).
T2 sequence (whole entry): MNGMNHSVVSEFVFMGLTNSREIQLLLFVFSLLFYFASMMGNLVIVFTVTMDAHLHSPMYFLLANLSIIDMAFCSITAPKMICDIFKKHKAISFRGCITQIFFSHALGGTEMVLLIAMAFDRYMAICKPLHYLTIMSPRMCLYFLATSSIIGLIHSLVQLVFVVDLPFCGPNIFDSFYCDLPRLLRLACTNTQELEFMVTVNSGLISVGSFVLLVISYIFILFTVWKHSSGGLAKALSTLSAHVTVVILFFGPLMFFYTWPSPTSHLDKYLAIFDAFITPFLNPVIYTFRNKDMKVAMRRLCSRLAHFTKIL
To be noted: stereoisomer not certain. In outline: as §1
Consider `CCC(C)=O`, for which the “odorant receptor agonist call” value is “inactive”.

As to `CS`, the “odorant receptor agonist call” value was “inactive”.

As for `CCCCOC(C)=O`, the “odorant receptor agonist call” value is “inactive”.

For a further experiment, the target named is T3, OR4F3 (Homo sapiens) (UniProt Q6IEY1).
T3 sequence (whole entry): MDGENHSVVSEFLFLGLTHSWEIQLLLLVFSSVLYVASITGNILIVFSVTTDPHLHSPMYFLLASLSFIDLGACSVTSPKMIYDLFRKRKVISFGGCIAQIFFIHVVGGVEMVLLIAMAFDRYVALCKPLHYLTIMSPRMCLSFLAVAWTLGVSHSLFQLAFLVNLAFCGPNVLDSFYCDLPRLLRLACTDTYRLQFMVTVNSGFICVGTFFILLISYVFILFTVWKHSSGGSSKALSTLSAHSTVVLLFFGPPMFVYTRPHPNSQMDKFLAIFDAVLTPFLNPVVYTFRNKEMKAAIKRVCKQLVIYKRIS
To be noted: stereoisomer not certain. In outline: as §1
Take `CCC(C)=O`: the “odorant receptor agonist call” value was “inactive”.

For the compound `CS`, the “odorant receptor agonist call” value was “inactive”.

For `CCCCOC(C)=O`, the “odorant receptor agonist call” value was “inactive”.

For another experiment, the system named is T4, OR4F3.
T4 sequence (whole entry): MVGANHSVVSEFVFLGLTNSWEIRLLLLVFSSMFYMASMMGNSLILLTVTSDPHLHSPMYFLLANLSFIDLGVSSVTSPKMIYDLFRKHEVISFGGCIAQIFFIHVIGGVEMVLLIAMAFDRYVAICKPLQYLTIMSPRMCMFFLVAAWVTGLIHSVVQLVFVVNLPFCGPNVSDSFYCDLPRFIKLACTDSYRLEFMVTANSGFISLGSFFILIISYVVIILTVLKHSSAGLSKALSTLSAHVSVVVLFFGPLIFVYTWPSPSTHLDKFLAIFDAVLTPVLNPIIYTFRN
As to conditions: stereoisomer not certain. Put shortly:
as §1
In the case of `CCC(C)=O`, the “odorant receptor agonist call” value was “inactive”.

In the case of `CS`, the “odorant receptor agonist call” value is “inactive”.

Regarding `CCCCOC(C)=O`, the “odorant receptor agonist call” value is “inactive”.

The record behind these values is the M2OR odorant receptor database.
